# Values of other authors, collected in US11911497B2, “Rebaudioside E and food products sweetened with rebaudioside E” (Conagen Inc., priority 2013, dated 2024).
# At least one structure is not confirmed: it was looked up by name or label, or the drawing left a doubt.
# Settings: cited from earlier work
smiles,measurement,value
"C=C1C[C@@]23CC[C@H]4[C@@](C)(CCC[C@@]4(C)C(=O)O[C@@H]4O[C@H](CO)[C@@H](O)[C@H](O)[C@H]4O)[C@@H]2CC[C@]1(O[C@@H]1O[C@H](CO)[C@@H](O)[C@H](O[C@@H]2O[C@H](CO)[C@@H](O)[C@H](O)[C@H]2O)[C@H]1O[C@@H]1O[C@H](CO)[C@@H](O)[C@H](O)[C@H]1O)C3 [Rebaudioside A, rebaudioside A]",Sweetness relative to sucrose (times sweeter),approximately 200 times
